Source: PubChem BioAssay AID1466 (National Center for Advancing Translational Sciences (NCATS), 2008)
Screen size: about 200,000 compounds; about 10 (0.005%) were called active. Only results without a clear call are listed here; the source files them as inconclusive. Calls follow the shape of the dose curve; as a rule, active = well fitted inhibition curve with a large enough effect; inconclusive = small, poorly fitted or top-dose-only effect, or effect the other way, or another doubt; inactive = no such curve, though single readings can be large or run the other way.

The molecules below were run against Lysosomal alpha-glucosidase (Homo sapiens) (UniProt P10253) (assay: qHTS Assay for Inhibitors of Human alpha-Glucosidase as a Potential Chaperone Treatment of Pompe Disease). Settings: purified human GAA, 4-MU-alpha-glucoside fluorescence.
Potency is read from the fitted curve at half-maximal effect.

SMILES | Potency
CC(C)(C)c1ccc(OP(C)(=O)Nc2ccc(SC(F)(F)F)cc2)cc1 (centres undefined) | inconclusive: 56.2 µM
Cc1cccc(C)c1OP(C)(=O)Nc1ccc(SC(F)(F)F)cc1 (centres undefined) | inconclusive: 25.1 µM
O=C(OCCN1CCN(CCOCc2ccccc2)CC1)C(O)(c1ccccc1)c1ccccc1 | inconclusive: 10 µM
CC(C)c1ccc(OP(C)(=O)Nc2ccc(SC(F)(F)F)cc2)cc1 (centres undefined) | inconclusive: 25.1 µM
